# Results from US9975901B2.
# Where two headings read alike, the source gives them in different places.
# Tests used:
# [1] = not given; remark: listed apart in the source
# [2] = not given; remark: listed apart in the source
smiles,measurement,setting,value
CCNC(=O)C[C@@H]1N=C(c2ccc(Cl)cc2)c2cc(OC)ccc2-n2c(C)nnc21,disproportionation in tablet dosage form,formulated with certain commonly used excipients (e.g. disintegrant croscarmellose sodium),disproportionation may occur
same,decomposition in standard stability studies,salt alone,did not decompose
same,description (colour) after light stressing,"[1]; exposed photostability sample, initial ""white to almost white solid""",white and slightly yellow solid
same,total impurity profile,[1]; photostability exposed sample,0.44%
same,chemical and physical stability after storage,"[2]; 3 months at 50° C./AmbH, desiccated and non-desiccated",both chemical and physical stability
same,chemical and physical stability after storage,"[2]; 6 months at 40° C./75% RH, desiccated and non-desiccated",both chemical and physical stability
same,chemical and physical stability after storage,"[2]; 12 months at 25° C./60% RH, non-desiccated",both chemical and physical stability
same,chemical and physical stability after storage,"[2]; 12 months at 30° C./65% RH, desiccated and non-desiccated",both chemical and physical stability
same,Water content increase,[2]; 25° C./60% RH after 12 months without desiccant,0.12%
same,Water content increase,[2]; 30° C./65% RH after 12 month with and without desiccant,0.10%
same,Water content increase,[2]; 50° C./AmbH without desiccant,0.15%
same,change in solid state form (XRPD),[2]; all storage conditions,no change
same,"changes in description, content, drug-related impurities content and chiral purity",[2]; all storage conditions,No significant changes
